Data as given in PubChem BioAssay AID1671195 (Yale University, 2021).
Aim: 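Genes whose knockdown alters LDL uptake in liver cancer cells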 (primary screen). Cell system: human Huh7 hepatoma cells. Reagents: siRNA pool against human genes, 18 nM. Time to read-out: about 2 to 2.5 days of knockdown, then 8 h LDL uptake. Challenge: DiI-labelled LDL at 30 µg/ml for 8 h, in lipoprotein-deficient serum medium. Detection: 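Fluorescent LDL signal imaged in cells, scaled to the plate median, robust z-score for each replicate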. Scale: robust z-score: higher = more LDL uptake after knockdown. Rule for the call: 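Active when two or more replicates show a robust z-score above 2 or below -2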.
Here is a random part of about 22,000 reagents tested. About 1,510 of all reagents (6.9%) count as active. 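Active includes knockdowns raising or lowering LDL uptake; positive z-scores mean more uptake, negative mean less.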 A number with no mark means an inactive call. No sequences are given here.

gene knocked down | robust z-score, replicate 1 | robust z-score, replicate 2 | robust z-score, replicate 3
STAMBP | 0.109 | -0.324 | 0.222
MTMR10 | -0.875 | -0.591 | 0.153
KIAA0319L | -0.00787 | -0.12 | -0.18
PROK2 | -0.503 | 0.247 | -0.308
INTS11 | -0.776 | -1.03 | -1.57
GEMIN5 | -0.161 | 0.686 | -0.532
ING5 | -0.122 | -0.314 | -0.05
FLJ90680 (retired record) | -0.507 | 0.00574 | -0.119
ADGRL3 | -0.966 | -1.12 | -0.909
SEC31A | 0.0519 | -0.918 | 0.535
NFIB | -1.22 | -1.1 | -0.0463
SERINC3 | -3.13 | -1.09 | -1.71
SH2D6 | 2.14 (active) | 1.96 | 1.57
LOC441909 (retired record) | 0.0175 | 0.569 | 0.321
GUCA1B | 1.5 (active) | 2.07 | 4.38
SLAIN1 | -0.725 | -0.878 | -0.657
KIF7 | -0.89 | -0.245 | -0.437
USF2 | 0.252 | -0.0733 | -0.241
PIGH | 0.306 | 0.81 | -0.674
LMNTD1 | -0.175 | 0.797 | 0.0525
LOC441130 (retired record) | -0.354 | -1 | -0.685
KIF16B | 0.203 | -1.11 | 0.209
LOC441991 (retired record) | -0.427 | -0.147 | -0.106
RTTN | 1.12 | 1.48 | 0.891
CCDC137 | -0.106 | -0.00524 | -0.129

Next part, starting with the last 3 of the part before.
gene knocked down | robust z-score, replicate 1 | robust z-score, replicate 2 | robust z-score, replicate 3
LOC441991 (retired record) | -0.427 | -0.147 | -0.106
RTTN | 1.12 | 1.48 | 0.891
CCDC137 | -0.106 | -0.00524 | -0.129
ACTR3B | 0.144 | -0.839 | -0.456
CNPY3 | 1.2 | -0.279 | 0.714
COPG2 | 0.628 | -1.06 | 0.465
DELE1 | -1.58 | -1.97 | -1.87
HTRA2 | -0.503 | -0.612 | -0.288
LOC401584 (retired record) | -0.0863 | -1.03 | 0.0999
LOC441233 (retired record) | 1.51 | 0.947 | 1.41
SAMD15 | -0.893 | -1.15 | -0.508
DNTTIP1 | 1.95 (active) | 2.74 | 2.48
PATL2 | -0.0845 | 0.43 | -0.429
RNMT | 0.316 | 0.342 | 0.112
SMYD2 | -1.76 | -1.63 | -1.53
TRAPPC8 | -0.124 | 0.00548 | 0.244
SERPINB9P1 | -0.667 | -0.617 | -0.921
MOB3C | 1.75 (active) | 2.73 | 2.99
TOMM22P3 | -0.845 | -1.25 | -0.562
HSD3BP3 | -0.308 | -0.517 | -0.354
RNF32-DT | -0.202 | 0.688 | -0.116
TM9SF4 | -0.475 | 0.0726 | -0.261
GADD45GIP1 | 0.501 | 1.01 | 0.821
LOC151154 (retired record) | -1.42 | -1.01 | -0.902
